In paper PMC7889885:
Results are given in words; binding and its absence hold for the method and conditions named. For part of these data: In cells and extracts the contact can be indirect. Some results given as binding are weak or reduced against the parent protein; the word gives no strength. Sequences can lack the tags named with a protein. Blank lines part the entries; values can stand above or below the binder they belong to.

Key:
[1] = target: T1, human NKCC1 (hNKCC1a, SLC12A2), twin-Strep tagged, as prepared for cryo-EM (human), P55011; test: cryo-EM structure; single-particle cryo-EM of the purified transporter in 20 mM HEPES pH 7.4, 150 mM NaCl, 0.1% digitonin, ~10 mg/ml; C2 symmetry imposed; both purified; details: remark: other sources report otherwise
T1 chain: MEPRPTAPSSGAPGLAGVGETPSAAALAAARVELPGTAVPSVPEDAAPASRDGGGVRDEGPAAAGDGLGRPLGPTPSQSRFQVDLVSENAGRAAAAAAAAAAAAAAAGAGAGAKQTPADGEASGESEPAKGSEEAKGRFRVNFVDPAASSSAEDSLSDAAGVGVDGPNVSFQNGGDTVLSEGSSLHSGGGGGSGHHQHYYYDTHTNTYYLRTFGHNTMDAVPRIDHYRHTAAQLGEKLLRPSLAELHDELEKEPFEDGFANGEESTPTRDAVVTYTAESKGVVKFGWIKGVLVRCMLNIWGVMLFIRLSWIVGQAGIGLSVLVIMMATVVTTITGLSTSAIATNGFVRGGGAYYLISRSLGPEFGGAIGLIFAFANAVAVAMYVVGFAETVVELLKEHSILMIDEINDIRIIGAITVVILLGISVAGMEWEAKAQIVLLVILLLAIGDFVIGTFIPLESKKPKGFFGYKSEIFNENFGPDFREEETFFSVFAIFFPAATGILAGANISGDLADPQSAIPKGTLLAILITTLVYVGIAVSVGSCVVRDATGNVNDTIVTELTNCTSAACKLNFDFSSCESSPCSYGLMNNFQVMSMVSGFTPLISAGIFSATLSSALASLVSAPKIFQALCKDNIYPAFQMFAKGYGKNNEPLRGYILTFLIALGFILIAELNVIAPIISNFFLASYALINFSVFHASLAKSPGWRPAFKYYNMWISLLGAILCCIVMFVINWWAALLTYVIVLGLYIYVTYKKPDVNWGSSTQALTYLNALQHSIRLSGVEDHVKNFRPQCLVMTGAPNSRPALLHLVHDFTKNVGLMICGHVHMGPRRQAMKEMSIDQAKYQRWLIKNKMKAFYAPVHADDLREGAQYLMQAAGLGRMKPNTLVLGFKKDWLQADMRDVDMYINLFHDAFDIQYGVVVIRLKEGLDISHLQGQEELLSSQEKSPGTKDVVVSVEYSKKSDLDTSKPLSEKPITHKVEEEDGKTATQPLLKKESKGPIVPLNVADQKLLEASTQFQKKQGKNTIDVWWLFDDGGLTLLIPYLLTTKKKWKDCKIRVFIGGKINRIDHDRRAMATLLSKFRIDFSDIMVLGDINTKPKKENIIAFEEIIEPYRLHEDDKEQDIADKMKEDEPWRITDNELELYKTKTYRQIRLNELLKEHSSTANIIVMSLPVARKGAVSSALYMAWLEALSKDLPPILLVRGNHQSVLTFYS

[2] = target: full-length hNKCC1 tagged with flag and YFP, F728C in the C723S-C724V double mutation (human) (UniProt P55011); test: cross-linking; oxidative cross-linking of single-cysteine mutants in HEK293 cells with 1.5 mM cupric phenanthroline in regular medium for 10-40 min before lysis; blot with T4 antibody
[3] = target: full-length hNKCC1 tagged with flag and YFP, W733C in the C723S-C724V double mutation (human) (UniProt P55011); test: as above

binding [1]: binds
B1: human NKCC1 (hNKCC1a, SLC12A2), twin-Strep tagged, as prepared for cryo-EM, P55011 1-1212 (natural protein)
chain: MEPRPTAPSSGAPGLAGVGETPSAAALAAARVELPGTAVPSVPEDAAPASRDGGGVRDEGPAAAGDGLGRPLGPTPSQSRFQVDLVSENAGRAAAAAAAAAAAAAAAGAGAGAKQTPADGEASGESEPAKGSEEAKGRFRVNFVDPAASSSAEDSLSDAAGVGVDGPNVSFQNGGDTVLSEGSSLHSGGGGGSGHHQHYYYDTHTNTYYLRTFGHNTMDAVPRIDHYRHTAAQLGEKLLRPSLAELHDELEKEPFEDGFANGEESTPTRDAVVTYTAESKGVVKFGWIKGVLVRCMLNIWGVMLFIRLSWIVGQAGIGLSVLVIMMATVVTTITGLSTSAIATNGFVRGGGAYYLISRSLGPEFGGAIGLIFAFANAVAVAMYVVGFAETVVELLKEHSILMIDEINDIRIIGAITVVILLGISVAGMEWEAKAQIVLLVILLLAIGDFVIGTFIPLESKKPKGFFGYKSEIFNENFGPDFREEETFFSVFAIFFPAATGILAGANISGDLADPQSAIPKGTLLAILITTLVYVGIAVSVGSCVVRDATGNVNDTIVTELTNCTSAACKLNFDFSSCESSPCSYGLMNNFQVMSMVSGFTPLISAGIFSATLSSALASLVSAPKIFQALCKDNIYPAFQMFAKGYGKNNEPLRGYILTFLIALGFILIAELNVIAPIISNFFLASYALINFSVFHASLAKSPGWRPAFKYYNMWISLLGAILCCIVMFVINWWAALLTYVIVLGLYIYVTYKKPDVNWGSSTQALTYLNALQHSIRLSGVEDHVKNFRPQCLVMTGAPNSRPALLHLVHDFTKNVGLMICGHVHMGPRRQAMKEMSIDQAKYQRWLIKNKMKAFYAPVHADDLREGAQYLMQAAGLGRMKPNTLVLGFKKDWLQADMRDVDMYINLFHDAFDIQYGVVVIRLKEGLDISHLQGQEELLSSQEKSPGTKDVVVSVEYSKKSDLDTSKPLSEKPITHKVEEEDGKTATQPLLKKESKGPIVPLNVADQKLLEASTQFQKKQGKNTIDVWWLFDDGGLTLLIPYLLTTKKKWKDCKIRVFIGGKINRIDHDRRAMATLLSKFRIDFSDIMVLGDINTKPKKENIIAFEEIIEPYRLHEDDKEQDIADKMKEDEPWRITDNELELYKTKTYRQIRLNELLKEHSSTANIIVMSLPVARKGAVSSALYMAWLEALSKDLPPILLVRGNHQSVLTFYS

binding [2]: binds
B2: full-length hNKCC1 tagged with flag and YFP, F728C in the C723S-C724V double mutation (protein, UniProt P55011 1-1212)
chain: MEPRPTAPSSGAPGLAGVGETPSAAALAAARVELPGTAVPSVPEDAAPASRDGGGVRDEGPAAAGDGLGRPLGPTPSQSRFQVDLVSENAGRAAAAAAAAAAAAAAAGAGAGAKQTPADGEASGESEPAKGSEEAKGRFRVNFVDPAASSSAEDSLSDAAGVGVDGPNVSFQNGGDTVLSEGSSLHSGGGGGSGHHQHYYYDTHTNTYYLRTFGHNTMDAVPRIDHYRHTAAQLGEKLLRPSLAELHDELEKEPFEDGFANGEESTPTRDAVVTYTAESKGVVKFGWIKGVLVRCMLNIWGVMLFIRLSWIVGQAGIGLSVLVIMMATVVTTITGLSTSAIATNGFVRGGGAYYLISRSLGPEFGGAIGLIFAFANAVAVAMYVVGFAETVVELLKEHSILMIDEINDIRIIGAITVVILLGISVAGMEWEAKAQIVLLVILLLAIGDFVIGTFIPLESKKPKGFFGYKSEIFNENFGPDFREEETFFSVFAIFFPAATGILAGANISGDLADPQSAIPKGTLLAILITTLVYVGIAVSVGSCVVRDATGNVNDTIVTELTNCTSAACKLNFDFSSCESSPCSYGLMNNFQVMSMVSGFTPLISAGIFSATLSSALASLVSAPKIFQALCKDNIYPAFQMFAKGYGKNNEPLRGYILTFLIALGFILIAELNVIAPIISNFFLASYALINFSVFHASLAKSPGWRPAFKYYNMWISLLGAILSVIVMCVINWWAALLTYVIVLGLYIYVTYKKPDVNWGSSTQALTYLNALQHSIRLSGVEDHVKNFRPQCLVMTGAPNSRPALLHLVHDFTKNVGLMICGHVHMGPRRQAMKEMSIDQAKYQRWLIKNKMKAFYAPVHADDLREGAQYLMQAAGLGRMKPNTLVLGFKKDWLQADMRDVDMYINLFHDAFDIQYGVVVIRLKEGLDISHLQGQEELLSSQEKSPGTKDVVVSVEYSKKSDLDTSKPLSEKPITHKVEEEDGKTATQPLLKKESKGPIVPLNVADQKLLEASTQFQKKQGKNTIDVWWLFDDGGLTLLIPYLLTTKKKWKDCKIRVFIGGKINRIDHDRRAMATLLSKFRIDFSDIMVLGDINTKPKKENIIAFEEIIEPYRLHEDDKEQDIADKMKEDEPWRITDNELELYKTKTYRQIRLNELLKEHSSTANIIVMSLPVARKGAVSSALYMAWLEALSKDLPPILLVRGNHQSVLTFYS

binding [3]: binds
B3: full-length hNKCC1 tagged with flag and YFP, W733C in the C723S-C724V double mutation (protein, UniProt P55011 1-1212)
chain: MEPRPTAPSSGAPGLAGVGETPSAAALAAARVELPGTAVPSVPEDAAPASRDGGGVRDEGPAAAGDGLGRPLGPTPSQSRFQVDLVSENAGRAAAAAAAAAAAAAAAGAGAGAKQTPADGEASGESEPAKGSEEAKGRFRVNFVDPAASSSAEDSLSDAAGVGVDGPNVSFQNGGDTVLSEGSSLHSGGGGGSGHHQHYYYDTHTNTYYLRTFGHNTMDAVPRIDHYRHTAAQLGEKLLRPSLAELHDELEKEPFEDGFANGEESTPTRDAVVTYTAESKGVVKFGWIKGVLVRCMLNIWGVMLFIRLSWIVGQAGIGLSVLVIMMATVVTTITGLSTSAIATNGFVRGGGAYYLISRSLGPEFGGAIGLIFAFANAVAVAMYVVGFAETVVELLKEHSILMIDEINDIRIIGAITVVILLGISVAGMEWEAKAQIVLLVILLLAIGDFVIGTFIPLESKKPKGFFGYKSEIFNENFGPDFREEETFFSVFAIFFPAATGILAGANISGDLADPQSAIPKGTLLAILITTLVYVGIAVSVGSCVVRDATGNVNDTIVTELTNCTSAACKLNFDFSSCESSPCSYGLMNNFQVMSMVSGFTPLISAGIFSATLSSALASLVSAPKIFQALCKDNIYPAFQMFAKGYGKNNEPLRGYILTFLIALGFILIAELNVIAPIISNFFLASYALINFSVFHASLAKSPGWRPAFKYYNMWISLLGAILSVIVMFVINWCAALLTYVIVLGLYIYVTYKKPDVNWGSSTQALTYLNALQHSIRLSGVEDHVKNFRPQCLVMTGAPNSRPALLHLVHDFTKNVGLMICGHVHMGPRRQAMKEMSIDQAKYQRWLIKNKMKAFYAPVHADDLREGAQYLMQAAGLGRMKPNTLVLGFKKDWLQADMRDVDMYINLFHDAFDIQYGVVVIRLKEGLDISHLQGQEELLSSQEKSPGTKDVVVSVEYSKKSDLDTSKPLSEKPITHKVEEEDGKTATQPLLKKESKGPIVPLNVADQKLLEASTQFQKKQGKNTIDVWWLFDDGGLTLLIPYLLTTKKKWKDCKIRVFIGGKINRIDHDRRAMATLLSKFRIDFSDIMVLGDINTKPKKENIIAFEEIIEPYRLHEDDKEQDIADKMKEDEPWRITDNELELYKTKTYRQIRLNELLKEHSSTANIIVMSLPVARKGAVSSALYMAWLEALSKDLPPILLVRGNHQSVLTFYS
